# Source: PubChem BioAssay AID540276 (National Center for Advancing Translational Sciences (NCATS), 2011)
# Screen size: about 300,000 compounds; about 5,400 (1.8%) were called active. This list was built around the results that the source calls inconclusive (neither active nor inactive); the mix of calls is not that of the screen. Calls follow the shape of the full dose curve; tested in HEK293 cells. Where the call is inconclusive, the potency comes from a doubtful curve fit.
# Assay: qHTS for inhibitors of binding or entry into cells for Marburg Virus
# Details: Marburg virus pseudotyped entry inhibition, cell reporter; activity change, negative = inhibition: at 37.8 µM (top of the series) unless noted
# % is scaled to controls: 0 for no effect and ±100 for the full control effect; potency is read from the fitted curve at half-maximal effect.
SMILES,Potency,"activity change, negative = inhibition"
CCN(CC)CCNC(=O)Cn1ncc2c3ccccc3n(Cc3ccccc3C)c2c1=O,"inconclusive: 14.1 µM [inhibitor, partial curve, poor fit]",
COc1ccc2[nH]cc(C(=O)CN3CCC(C)CC3)c2c1,"inconclusive: 1.46 µM [activator, single point]",
CCn1c(SCC(=O)c2ccc3c(c2)OCCO3)nnc1-c1ccco1,,inactive: 10.1% [at 46.1 µM]
Cc1ccc(-n2cc(-c3ccccc3)c3c(N4CCOCC4)ncnc32)cc1,"inconclusive: 1.12 µM [inhibitor, partial curve, poor fit]",
COc1ccc(NC(=O)/C(Cl)=C(/Cl)S(=O)Cc2ccccc2)cn1 (centres undefined),"inconclusive: 2.24 µM [inhibitor, full curve, poor fit]",
COc1ccc(C(=O)c2cn(Cc3cccc(C)c3)c3cc4c(cc3c2=O)OCCO4)cc1OC,"inconclusive: 1.12 µM [inhibitor, full curve, poor fit]",
Cc1ccc(C(C(=O)NCC2CCCO2)N(C(=O)c2snc(C(N)=O)c2N)c2ccc(C)c(C)c2)o1 (centres undefined),"inconclusive: 11.2 µM [inhibitor, single point]",
NC1CCN(c2cccc(Cl)n2)CC1,"inconclusive: 0.126 µM [inhibitor, full curve, poor fit]",
COc1ccc(-c2c(C(C)=O)c(C)nc3sc4c(c23)NC(c2ccccc2)NC4=O)cc1 (centres undefined),,inactive: 2.89%
CC1Cc2ccccc2N1C(=O)c1ccnc(C(C)(C)C)c1 (centres undefined),,inactive: -3.99%
CC1C(=O)N(C)C(=O)c2nc[nH]c21 (centres undefined),"inconclusive: 1 µM [inhibitor, full curve, poor fit]",
Cc1ccc(N2C(=O)C3C4C=CC(CNC(=S)Nc5ccc(F)cc5)(O4)C3C2=O)cc1 (centres undefined),"inconclusive: 1.26 µM [inhibitor, single point]",
O=C1CC(N2CCCc3ccccc32)C(=O)N1c1ccccc1 (centres undefined),"inconclusive: 23.1 µM [activator, single point]",
O=c1cc(O)c2ccccc2n1Cc1ccccc1F,,inactive: 29.8% [at 46.1 µM]
CC(=O)/C(C#N)=C1\NC(=O)C(Cc2ccccc2C)S1 (centres undefined),"inconclusive: 0.631 µM [inhibitor, full curve, poor fit]",
C/C(=N\NC(=O)c1c(C)nc2ccccn12)c1ccc(N2CCOCC2)cc1,,inactive: -5.26% [at 46.1 µM]
Cc1cc(=O)oc2cc(NS(=O)(=O)c3ccc(F)cc3)ccc12,"inconclusive: 0.562 µM [inhibitor, full curve, poor fit]",
c1ccc(-c2ccccc2OCCCN2CCCCC2)cc1,"inconclusive: 9.2 µM [inhibitor, partial curve, poor fit]",
CC(C)n1nc(C(=O)OCC(=O)c2c[nH]c3ccccc23)c2ccccc2c1=O,"inconclusive: 9.2 µM [inhibitor, partial curve, poor fit]",
CC(C)C(=O)Nc1ccc(NC(=O)CCc2ccccc2)cn1,"inconclusive: 11.2 µM [activator, single point]",
NC(=NCCC[C@H](N)C(=O)O)NO,"inconclusive: 0.0562 µM [inhibitor, full curve, poor fit]",
N#Cc1ccc(-c2ccc(F)cc2)nc1Sc1ccc(F)cc1,"inconclusive: 8.2 µM [inhibitor, partial curve, poor fit]",
CC(=NCc1ccco1)c1c(O)n(C)c(=O)n(C)c1=O,,inactive: -9.48%

SMILES,Potency,"activity change, negative = inhibition"
COc1ccccc1N=c1scc(-c2ccc3c(c2)NC(=O)CO3)n1CC1CCCO1 (centres undefined),"inconclusive: 0.501 µM [inhibitor, full curve, poor fit]",
Cc1ccc(CCNC(=O)CN2CCN(Cc3ccc(Cl)cc3)C2=O)cc1,,inactive: 1.23% [at 46.1 µM]
COc1ccccc1N1C(=N)S/C(=C\c2ccc(-c3ccccc3C(=O)O)o2)C1=O,,inactive: 9.22%
O=S(=O)(Nc1ccc(Br)cc1)c1ccc2nc(-c3ccccc3)[nH]c2c1,"inconclusive: 20 µM [inhibitor, single point]",
Cc1ccc2nc(Nc3nc(C)cc(C(F)(F)F)n3)nc(C)c2c1,"inconclusive: 6.31 µM [inhibitor, single point]",
CCC1(C)Cc2ccccc2-c2nc(NCCCO)n(-c3ccccc3)c(=O)c21 (centres undefined),,inactive: -11%
Cc1ccc(S(=O)(=O)Nc2ccc3c(c2)c(C(=O)OC(C)C)c(C)n3S(=O)(=O)c2ccc(C)cc2)cc1,"inconclusive: 17.8 µM [inhibitor, single point]",
COc1ccc(N2C(=O)CC3(CCCC3)CC2=O)cc1,,inactive: 6.43%
COc1ccc(NC(=O)c2cc(-c3cc(C)cc(C)c3O)n[nH]2)cc1Cl,"inconclusive: 29.1 µM [inhibitor, single point]",
Cc1ccc(CNC(=O)CN(CCc2ccccc2)S(C)(=O)=O)cc1,"inconclusive: 0.562 µM [inhibitor, full curve, poor fit]",
CCc1ccc(S(=O)(=O)NCC(O)COc2ccc(OC)cc2)cc1 (centres undefined),"inconclusive: 3.16 µM [inhibitor, single point]",
CCCCC(=O)N/N=C/c1sccc1C,,inactive: -9.26%
Cc1ccc(S(=O)(=O)NC(=O)NCc2ccc(F)cc2)cc1,,inactive: 9.13% [at 46.1 µM]
COc1cc(/C=N/Nc2nc3ccccc3[nH]2)ccc1O,,inactive: -8.55%
O=C(Nc1ccc(COc2ccccc2)cc1)c1cccc([N+](=O)[O-])c1,"inconclusive: 11.2 µM [inhibitor, partial curve, poor fit]",
C=CCn1c(C)nc2c(sc3nc4c(cc32)COC(C)(C)C4)c1=O,"inconclusive: 2.24 µM [activator, partial curve, poor fit]",
COc1ccc(Nc2nc(-c3cccnc3)nc3ccccc23)cn1,"inconclusive: 10 µM [inhibitor, partial curve, poor fit]",
CC(C)N1CCC(N2CCN(Cc3cnc(-c4ccccc4)s3)CC2CCO)CC1 (centres undefined),"inconclusive: 11.2 µM [inhibitor, partial curve, poor fit]",
COC(=O)CNC(=O)C1CC(=O)N(CCc2ccc(F)cc2)C1 (centres undefined),,inactive: 2.27%
COc1ccc(Cl)cc1C(=O)Nc1ccncc1,,inactive: 1.44%
CCc1ccc(NC(=O)c2oc3c(c2C)-c2[nH]ncc2CC3)cc1,"inconclusive: 10 µM [inhibitor, partial curve, poor fit]",
COC(=O)Cn1nnc(N2CCOCC2)n1,,inactive: 8.82% [at 46.1 µM]
Oc1ccc(Nc2nc(-c3ccc(Cl)cc3)nc3ccccc23)cc1,"inconclusive: 35.5 µM [inhibitor, single point]",

# A draw from above in order of SMILES length, rising.
SMILES,Potency,"activity change, negative = inhibition"
C=CCn1c(C)nc2c(sc3nc4c(cc32)COC(C)(C)C4)c1=O,"inconclusive: 2.24 µM [activator, partial curve, poor fit]",
CC(C)N1CCC(N2CCN(Cc3cnc(-c4ccccc4)s3)CC2CCO)CC1 (centres undefined),"inconclusive: 11.2 µM [inhibitor, partial curve, poor fit]",
CCC1(C)Cc2ccccc2-c2nc(NCCCO)n(-c3ccccc3)c(=O)c21 (centres undefined),,inactive: -11%

# Following part.

SMILES,Potency,"activity change, negative = inhibition"
CCOC(=O)C1=C(C)NC(=O)N[C@H]1c1ccc2c(c1)OCO2,,inactive: 6.92% [at 46.1 µM]
COCCNc1nc(CSc2ccccc2)nc2sc(C)c(C)c12,,inactive: -4.08%
COc1ccc(NC(=O)CCCN2C(=O)CCC2=O)cc1Cl,"inconclusive: 1.26 µM [inhibitor, partial curve, poor fit]",
CCN(Cc1ccccc1)C(=O)COc1ccccc1,,inactive: 17.8%
CCOCCCn1c(=N)c(C(=O)NC2CCCC2)cc2c(=O)n3cccc(C)c3nc21,,inactive: 11.2% [at 46.1 µM]
c1ccc(CCn2c3ccccc3c3nnc(SCc4ccc5nonc5c4)nc32)cc1,active: 3.26 µM,
Cc1nn(-c2ccccc2)c(Cl)c1/C=N/NC(=O)C1COc2ccccc2O1 (centres undefined),,inactive: -4.52%
CCOC(=O)CCN1C(=O)[C@H]2[C@H]3[C@H](O)[C@H](O)C/C(=N/OCC(C)C)[C@@H]3CC[C@@H]2C1=O,,inactive: -10.9% [at 14.2 µM]
Cc1ccc(C(C)NC(=O)CSc2ccc(S(=O)(=O)N3CCOCC3)cn2)cc1C (centres undefined),,inactive: 13.6%
CC(=O)OC1CC(OC2C(O)CC(OC3C(O)CC(OC4CCC5(C)C(CCC6C5CCC5(C)C(C7=CC(=O)OC7)CCC65O)C4)OC3C)OC2C)OC(C)C1OC1OC(CO)C(O)C(O)C1O (centres undefined),"inconclusive: 0.0891 µM [inhibitor, full curve, poor fit]",
COc1ccc(S(=O)(=O)N2CCN(Cc3ccc(OC)c(OC)c3)CC2)cc1,"inconclusive: 1.26 µM [inhibitor, single point]",
Cc1cc(=O)oc(C)c1C(=O)NCCNC(=O)c1c(C)cc(=O)oc1C,"inconclusive: 4.47 µM [activator, full curve, poor fit]",
NS(=O)(=O)c1ccc(CNC(=S)Nc2ccc(Cl)c(Cl)c2)cc1,"inconclusive: 22.4 µM [inhibitor, partial curve, poor fit]",
COc1ccc(Cl)cc1NC(=O)CSc1nc2ccccc2nc1N1CCCCC1,"inconclusive: 35.5 µM [inhibitor, single point]",
COc1ccc(N/C=C/C(=O)c2ccc(Cl)cc2)cc1,"inconclusive: 11.2 µM [inhibitor, single point]",
Cc1ccc(C(=O)N/C(=C\c2cccc([N+](=O)[O-])c2)C(=O)NC(Cc2ccccc2)C(=O)O)cc1 (centres undefined),,inactive: -14.1%
CC(C(O)C12CC3CC(CC(C3)C1)C2)N1CCCCC1 (centres undefined),"inconclusive: 10.3 µM [inhibitor, partial curve, poor fit]",
CC(NC(=O)c1ccc2ccccc2n1)c1ccc(Br)cc1 (centres undefined),"inconclusive: 35.5 µM [inhibitor, single point]",
O=C(c1ccc2c3c(cccc13)CC2)N1CCOCC1,"inconclusive: 22.4 µM [activator, single point]",
O=C(CCCCCNC(=O)c1ccccc1)N/N=C/c1ccc(F)cc1,"inconclusive: 0.891 µM [inhibitor, full curve, poor fit]",
CC(NC(=O)COC(=O)c1cc(NS(=O)(=O)c2ccc(Cl)c([N+](=O)[O-])c2)ccc1O)C1CC2CCC1C2 (centres undefined),"inconclusive: 35.5 µM [inhibitor, partial curve, poor fit]",
COc1ccc(OCC(=O)N2c3ccc(C)cc3C3CN(C)CCC32)cc1 (centres undefined),,inactive: -0.372% [at 46.1 µM]
COc1cc(/C=C2/NC(=O)N(Cc3ccccc3F)C2=O)ccc1O,"inconclusive: 35.5 µM [inhibitor, single point]",
